The target of assay [1] is T1, myc-EYA1 D297N (human) (UniProt Q99502).
T1 sequence: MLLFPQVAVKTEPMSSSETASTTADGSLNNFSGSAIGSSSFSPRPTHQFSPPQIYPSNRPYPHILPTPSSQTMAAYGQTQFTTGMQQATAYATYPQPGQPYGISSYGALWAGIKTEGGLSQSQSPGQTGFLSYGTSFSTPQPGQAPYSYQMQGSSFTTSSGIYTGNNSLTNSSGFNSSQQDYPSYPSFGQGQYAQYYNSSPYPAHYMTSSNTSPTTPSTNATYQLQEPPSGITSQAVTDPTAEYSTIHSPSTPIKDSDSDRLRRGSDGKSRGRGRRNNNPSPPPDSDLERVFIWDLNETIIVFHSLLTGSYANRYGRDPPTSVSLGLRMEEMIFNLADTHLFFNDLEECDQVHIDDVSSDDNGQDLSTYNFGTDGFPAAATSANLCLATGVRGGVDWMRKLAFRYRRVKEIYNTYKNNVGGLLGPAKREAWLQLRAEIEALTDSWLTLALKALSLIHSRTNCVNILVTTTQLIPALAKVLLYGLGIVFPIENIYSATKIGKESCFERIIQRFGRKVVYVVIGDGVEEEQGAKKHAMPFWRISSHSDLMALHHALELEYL
The assay is described as follows: co-IP; 293T cells co-expressing both tagged proteins and Src kinase (SrcY527F); myc-tagged protein immunoprecipitated with anti-myc, trapped protein detected with anti-VSV-G; lysis in 50 mM Tris-HCl pH 7.4, 150 mM NaCl, 1% NP-40, 10 mM MgCl2, 1 mM orthovanadate, 5 mM iodoacetic acid, 10% glycerol, 4 °C.

Assay [2] concerns the target T2, myc-EYA1 WT (human) (UniProt Q99502).
T2 sequence: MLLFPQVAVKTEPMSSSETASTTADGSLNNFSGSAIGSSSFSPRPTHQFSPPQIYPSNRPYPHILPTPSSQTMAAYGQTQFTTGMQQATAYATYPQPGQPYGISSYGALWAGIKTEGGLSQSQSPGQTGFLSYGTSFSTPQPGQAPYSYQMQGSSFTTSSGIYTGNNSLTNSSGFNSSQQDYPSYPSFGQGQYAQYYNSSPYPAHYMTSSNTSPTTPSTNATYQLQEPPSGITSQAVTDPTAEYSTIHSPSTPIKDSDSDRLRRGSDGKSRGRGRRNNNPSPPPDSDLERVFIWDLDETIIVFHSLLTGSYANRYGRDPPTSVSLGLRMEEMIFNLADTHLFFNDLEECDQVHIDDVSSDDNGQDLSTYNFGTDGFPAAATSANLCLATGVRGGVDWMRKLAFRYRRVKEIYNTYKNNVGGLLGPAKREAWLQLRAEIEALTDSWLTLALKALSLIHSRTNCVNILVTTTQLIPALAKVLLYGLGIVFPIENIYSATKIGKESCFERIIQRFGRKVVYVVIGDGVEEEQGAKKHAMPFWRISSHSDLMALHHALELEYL
The assay is described as above.

For assay [3], the target named is T3, myc-EYA3 D311N (human) (UniProt Q99504).
T3 sequence: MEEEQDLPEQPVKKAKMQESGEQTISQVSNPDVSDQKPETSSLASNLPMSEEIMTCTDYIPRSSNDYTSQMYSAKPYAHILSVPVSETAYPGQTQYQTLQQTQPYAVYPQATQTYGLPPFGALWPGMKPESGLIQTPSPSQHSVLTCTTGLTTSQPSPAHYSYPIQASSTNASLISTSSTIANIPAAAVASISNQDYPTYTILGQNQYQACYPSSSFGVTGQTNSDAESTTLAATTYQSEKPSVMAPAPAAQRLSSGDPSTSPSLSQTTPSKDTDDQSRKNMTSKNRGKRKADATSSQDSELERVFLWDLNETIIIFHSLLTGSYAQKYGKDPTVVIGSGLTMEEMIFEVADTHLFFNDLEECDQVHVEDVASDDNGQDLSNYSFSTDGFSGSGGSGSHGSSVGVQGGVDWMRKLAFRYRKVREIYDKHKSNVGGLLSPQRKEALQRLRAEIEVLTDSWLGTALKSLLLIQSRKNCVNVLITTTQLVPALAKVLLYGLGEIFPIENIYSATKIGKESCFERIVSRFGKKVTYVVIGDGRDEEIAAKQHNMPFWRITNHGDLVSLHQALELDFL
The assay is described as follows: co-IP; 293T cells transfected with myc-EYA3 D311N, VSV-G-WDR1 and Btk kinase instead of Src; myc-tagged protein immunoprecipitated, anti-VSV-G blot.

These are yes or no findings as the source states them, for the method shown. Binding seen in cells or lysates may run through a third protein. Some results given as binding are weak or reduced against the parent protein; the word gives no strength. Where a sequence is shown, tags or fusion partners need not be part of it.

B1: VSV-G-EYA3 Y508F (enzyme, UniProt Q99504 1-573)
chain: MEEEQDLPEQPVKKAKMQESGEQTISQVSNPDVSDQKPETSSLASNLPMSEEIMTCTDYIPRSSNDYTSQMYSAKPYAHILSVPVSETAYPGQTQYQTLQQTQPYAVYPQATQTYGLPPFGALWPGMKPESGLIQTPSPSQHSVLTCTTGLTTSQPSPAHYSYPIQASSTNASLISTSSTIANIPAAAVASISNQDYPTYTILGQNQYQACYPSSSFGVTGQTNSDAESTTLAATTYQSEKPSVMAPAPAAQRLSSGDPSTSPSLSQTTPSKDTDDQSRKNMTSKNRGKRKADATSSQDSELERVFLWDLDETIIIFHSLLTGSYAQKYGKDPTVVIGSGLTMEEMIFEVADTHLFFNDLEECDQVHVEDVASDDNGQDLSNYSFSTDGFSGSGGSGSHGSSVGVQGGVDWMRKLAFRYRKVREIYDKHKSNVGGLLSPQRKEALQRLRAEIEVLTDSWLGTALKSLLLIQSRKNCVNVLITTTQLVPALAKVLLYGLGEIFPIENIFSATKIGKESCFERIVSRFGKKVTYVVIGDGRDEEIAAKQHNMPFWRITNHGDLVSLHQALELDFL
With B1, the binding entry in assay [1] and in assay [2] was “no binding” in each case.

B2: VSV-G-WDR1 WT, phosphorylated by co-expressed Btk kinase (protein, UniProt O75083 1-606)
chain: MPYEIKKVFASLPQVERGVSKIIGGDPKGNNFLYTNGKCVILRNIDNPALADIYTEHAHQVVVAKYAPSGFYIASGDVSGKLRIWDTTQKEHLLKYEYQPFAGKIKDIAWTEDSKRIAVVGEGREKFGAVFLWDSGSSVGEITGHNKVINSVDIKQSRPYRLATGSDDNCAAFFEGPPFKFKFTIGDHSRFVNCVRFSPDGNRFATASADGQIYIYDGKTGEKVCALGGSKAHDGGIYAISWSPDSTHLLSASGDKTSKIWDVSVNSVVSTFPMGSTVLDQQLGCLWQKDHLLSVSLSGYINYLDRNNPSKPLHVIKGHSKSIQCLTVHKNGGKSYIYSGSHDGHINYWDSETGENDSFAGKGHTNQVSRMTVDESGQLISCSMDDTVRYTSLMLRDYSGQGVVKLDVQPKCVAVGPGGYAVVVCIGQIVLLKDQRKCFSIDNPGYEPEVVAVHPGGDTVAIGGVDGNVRLYSILGTTLKDEGKLLEAKGPVTDVAYSHDGAFLAVCDASKVVTVFSVADGYSENNVFYGHHAKIVCLAWSPDNEHFASGGMDMMVYVWTLSDPETRVKIQDAHRLHHVSSLAWLDEHTLVTTSHDASVKEWTITY
modifications: phosphotyrosine (Btk kinase mediated phosphorylation; sites not mapped)
As for B2, the binding result in assay [3] is reported as “binds weakly”.

For the origin of these results see publication PMC5811557.
